For six molecules, binding results are on record in article doi:10.1101/2024.06.14.598964.

Sequences of proteins named here, by UniProt entry; tags and fusion partners are left off.
UniProt Q9UHY1: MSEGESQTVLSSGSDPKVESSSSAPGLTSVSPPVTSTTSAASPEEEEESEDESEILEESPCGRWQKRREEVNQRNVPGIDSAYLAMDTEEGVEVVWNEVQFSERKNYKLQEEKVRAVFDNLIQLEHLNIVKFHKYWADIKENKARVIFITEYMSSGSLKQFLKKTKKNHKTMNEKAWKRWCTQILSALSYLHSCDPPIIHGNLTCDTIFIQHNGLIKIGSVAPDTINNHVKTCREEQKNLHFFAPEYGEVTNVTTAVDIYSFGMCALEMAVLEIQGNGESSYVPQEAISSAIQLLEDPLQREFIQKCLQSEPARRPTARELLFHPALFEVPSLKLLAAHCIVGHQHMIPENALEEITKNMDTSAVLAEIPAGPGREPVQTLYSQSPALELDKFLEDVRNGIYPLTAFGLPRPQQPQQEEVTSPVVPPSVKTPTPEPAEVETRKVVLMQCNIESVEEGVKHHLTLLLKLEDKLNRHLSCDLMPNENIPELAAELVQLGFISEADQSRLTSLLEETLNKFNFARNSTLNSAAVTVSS
UniProt Q13283: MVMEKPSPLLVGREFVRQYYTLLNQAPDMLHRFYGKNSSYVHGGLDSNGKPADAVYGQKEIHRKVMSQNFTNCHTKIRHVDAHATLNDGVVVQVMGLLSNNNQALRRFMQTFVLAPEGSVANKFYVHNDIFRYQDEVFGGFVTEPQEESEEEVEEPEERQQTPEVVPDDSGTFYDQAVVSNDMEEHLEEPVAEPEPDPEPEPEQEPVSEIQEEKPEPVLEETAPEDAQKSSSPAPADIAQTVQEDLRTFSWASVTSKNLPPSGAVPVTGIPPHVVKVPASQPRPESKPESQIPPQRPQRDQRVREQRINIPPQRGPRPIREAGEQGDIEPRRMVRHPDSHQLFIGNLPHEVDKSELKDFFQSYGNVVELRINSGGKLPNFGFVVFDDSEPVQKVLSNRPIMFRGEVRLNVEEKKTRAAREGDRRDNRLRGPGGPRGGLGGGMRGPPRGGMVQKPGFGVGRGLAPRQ
UniProt Q9UN81: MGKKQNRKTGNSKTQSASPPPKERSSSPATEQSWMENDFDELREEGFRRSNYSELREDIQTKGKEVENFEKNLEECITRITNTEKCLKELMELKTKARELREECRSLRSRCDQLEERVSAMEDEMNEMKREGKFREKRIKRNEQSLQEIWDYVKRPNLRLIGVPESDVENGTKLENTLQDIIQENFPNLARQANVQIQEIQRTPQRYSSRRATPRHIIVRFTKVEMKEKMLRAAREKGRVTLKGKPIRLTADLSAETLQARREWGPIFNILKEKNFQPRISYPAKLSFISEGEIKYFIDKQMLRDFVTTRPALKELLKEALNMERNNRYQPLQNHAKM
UniProt P67809: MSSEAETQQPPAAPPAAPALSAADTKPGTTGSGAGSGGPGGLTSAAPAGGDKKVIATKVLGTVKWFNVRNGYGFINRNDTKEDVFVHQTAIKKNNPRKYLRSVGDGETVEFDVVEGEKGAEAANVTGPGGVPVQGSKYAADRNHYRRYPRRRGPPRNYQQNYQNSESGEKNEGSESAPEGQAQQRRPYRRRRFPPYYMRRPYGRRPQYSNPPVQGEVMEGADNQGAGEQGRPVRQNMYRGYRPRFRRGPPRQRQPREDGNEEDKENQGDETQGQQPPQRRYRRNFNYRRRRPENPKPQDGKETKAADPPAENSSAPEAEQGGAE

Like-named read-outs stand apart in the source and are kept apart here. These are yes or no findings as the source states them, for the method shown. Binding seen in cells or lysates may run through a third protein. Some results given as binding are weak or reduced against the parent protein; the word gives no strength. For some assays here: Where a sequence is shown, tags or fusion partners need not be part of it.

Test in all cases: co-IP
Assay [1] addresses Myc-Flag-NRBP1 expressed in HEK293T cells (human) (UniProt Q9UHY1).
Assay [2] has as its target T1, Myc-Flag-NRBP2 expressed in HEK293T cells (human) (UniProt Q9NSY0).
T1 sequence: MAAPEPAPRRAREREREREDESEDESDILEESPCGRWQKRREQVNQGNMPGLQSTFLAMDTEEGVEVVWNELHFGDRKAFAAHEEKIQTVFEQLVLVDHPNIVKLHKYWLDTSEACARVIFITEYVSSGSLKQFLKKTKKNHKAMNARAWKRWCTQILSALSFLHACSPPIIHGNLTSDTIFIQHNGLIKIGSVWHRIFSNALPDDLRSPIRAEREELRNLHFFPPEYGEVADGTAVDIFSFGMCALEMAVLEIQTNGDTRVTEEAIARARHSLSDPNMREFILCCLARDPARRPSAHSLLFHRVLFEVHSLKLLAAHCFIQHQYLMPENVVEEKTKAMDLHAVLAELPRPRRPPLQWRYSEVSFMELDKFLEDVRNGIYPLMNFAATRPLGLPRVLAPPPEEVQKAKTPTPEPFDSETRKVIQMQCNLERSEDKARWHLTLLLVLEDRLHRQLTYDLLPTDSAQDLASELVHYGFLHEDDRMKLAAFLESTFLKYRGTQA

For assay [3], the target named is T2, Myc-Flag-NRBP2 expressed in MCF-7 cells (human) (UniProt Q9NSY0).
T2 sequence: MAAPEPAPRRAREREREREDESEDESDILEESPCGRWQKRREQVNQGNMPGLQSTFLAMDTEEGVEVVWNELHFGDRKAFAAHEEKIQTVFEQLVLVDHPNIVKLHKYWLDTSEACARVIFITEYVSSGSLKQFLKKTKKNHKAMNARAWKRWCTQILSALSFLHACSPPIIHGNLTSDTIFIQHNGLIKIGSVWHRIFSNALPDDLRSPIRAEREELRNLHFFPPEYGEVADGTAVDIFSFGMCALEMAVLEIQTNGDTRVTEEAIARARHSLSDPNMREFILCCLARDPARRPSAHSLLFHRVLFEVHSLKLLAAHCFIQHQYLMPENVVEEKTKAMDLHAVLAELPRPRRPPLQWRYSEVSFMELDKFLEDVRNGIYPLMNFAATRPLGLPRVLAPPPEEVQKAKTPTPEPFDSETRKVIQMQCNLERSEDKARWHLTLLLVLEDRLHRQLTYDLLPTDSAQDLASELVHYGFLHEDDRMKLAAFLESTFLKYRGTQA

The target of assay [4] is Myc-Flag-NRBP1 expressed in MCF-7 cells (human) (UniProt Q9UHY1).
The target of assay [5] is Myc-Flag-NRBP1 expressed in HEK293T cells (human) (UniProt Q9UHY1). The source holds these as a separate data set.
Assay [6] concerns the target T1, Myc-Flag-NRBP2 expressed in HEK293T cells (human). The source holds these as a separate data set.
The target in assay [7] is NRBP1-Flag (full-length NRBP1) expressed in HEK293T cells (human) (UniProt Q9UHY1).

Turning to “G3BP1, endogenous in HEK293T (from UniProt Q13283 1-466)”, the binding result in assay [1] and in assay [2] was “binds” each time.

For the molecule “L1-encoded ORF1 protein (open-reading frame 1), endogenous in MCF-7 (from UniProt Q9UN81 1-338)”, the binding entry in assay [3] and in assay [4] was “binds” in each case.

With “YBX1, endogenous in HEK293T (from UniProt P67809 1-324)”, the binding result in assay [1] and in assay [2] was “binds” throughout.

B1: UPF1, endogenous in HEK293T (protein, UniProt Q92900 1-1129)
chain: MSVEAYGPSSQTLTFLDTEEAELLGADTQGSEFEFTDFTLPSQTQTPPGGPGGPGGGGAGGPGGAGAGAAAGQLDAQVGPEGILQNGAVDDSVAKTSQLLAELNFEEDEEDTYYTKDLPIHACSYCGIHDPACVVYCNTSKKWFCNGRGNTSGSHIVNHLVRAKCKEVTLHKDGPLGETVLECYNCGCRNVFLLGFIPAKADSVVVLLCRQPCASQSSLKDINWDSSQWQPLIQDRCFLSWLVKIPSEQEQLRARQITAQQINKLEELWKENPSATLEDLEKPGVDEEPQHVLLRYEDAYQYQNIFGPLVKLEADYDKKLKESQTQDNITVRWDLGLNKKRIAYFTLPKTDSGNEDLVIIWLRDMRLMQGDEICLRYKGDLAPLWKGIGHVIKVPDNYGDEIAIELRSSVGAPVEVTHNFQVDFVWKSTSFDRMQSALKTFAVDETSVSGYIYHKLLGHEVEDVIIKCQLPKRFTAQGLPDLNHSQVYAVKTVLQRPLSLIQGPPGTGKTVTSATIVYHLARQGNGPVLVCAPSNIAVDQLTEKIHQTGLKVVRLCAKSREAIDSPVSFLALHNQIRNMDSMPELQKLQQLKDETGELSSADEKRYRALKRTAERELLMNADVICCTCVGAGDPRLAKMQFRSILIDESTQATEPECMVPVVLGAKQLILVGDHCQLGPVVMCKKAAKAGLSQSLFERLVVLGIRPIRLQVQYRMHPALSAFPSNIFYEGSLQNGVTAADRVKKGFDFQWPQPDKPMFFYVTQGQEEIASSGTSYLNRTEAANVEKITTKLLKAGAKPDQIGIITPYEGQRSYLVQYMQFSGSLHTKLYQEVEIASVDAFQGREKDFIILSCVRANEHQGIGFLNDPRRLNVALTRARYGVIIVGNPKALSKQPLWNHLLNYYKEQKVLVEGPLNNLRESLMQFSKPRKLVNTINPGARFMTTAMYDAREAIIPGSVYDRSSQGRPSSMYFQTHDQIGMISAGPSHVAAMNIPIPFNLVMPPMPPPGYFGQANGPAAGRGTPKGKTGRGGRQKNRFGLPGPSQTNLPNSQASQDVASQPFSQGALTQGYISMSQPSQMSQPGLSQPELSQDSYLGDEFKSQIDVALSQDSTYQGERAYQHGGVTGLSQY
For B1, the binding result in assay [5] and in assay [6] was “binds” in each case.

B2: MOV10, endogenous in HEK293T (protein, UniProt Q9HCE1 1-1003)
chain: MPSKFSCRQLREAGQCFESFLVVRGLDMETDRERLRTIYNRDFKISFGTPAPGFSSMLYGMKIANLAYVTKTRVRFFRLDRWADVRFPEKRRMKLGSDISKHHKSLLAKIFYDRAEYLHGKHGVDVEVQGPHEARDGQLLIRLDLNRKEVLTLRLRNGGTQSVTLTHLFPLCRTPQFAFYNEDQELPCPLGPGECYELHVHCKTSFVGYFPATVLWELLGPGESGSEGAGTFYIARFLAAVAHSPLAAQLKPMTPFKRTRITGNPVVTNRIEEGERPDRAKGYDLELSMALGTYYPPPRLRQLLPMLLQGTSIFTAPKEIAEIKAQLETALKWRNYEVKLRLLLHLEELQMEHDIRHYDLESVPMTWDPVDQNPRLLTLEVPGVTESRPSVLRGDHLFALLSSETHQEDPITYKGFVHKVELDRVKLSFSMSLLSRFVDGLTFKVNFTFNRQPLRVQHRALELTGRWLLWPMLFPVAPRDVPLLPSDVKLKLYDRSLESNPEQLQAMRHIVTGTTRPAPYIIFGPPGTGKTVTLVEAIKQVVKHLPKAHILACAPSNSGADLLCQRLRVHLPSSIYRLLAPSRDIRMVPEDIKPCCNWDAKKGEYVFPAKKKLQEYRVLITTLITAGRLVSAQFPIDHFTHIFIDEAGHCMEPESLVAIAGLMEVKETGDPGGQLVLAGDPRQLGPVLRSPLTQKHGLGYSLLERLLTYNSLYKKGPDGYDPQFITKLLRNYRSHPTILDIPNQLYYEGELQACADVVDRERFCRWAGLPRQGFPIIFHGVMGKDEREGNSPSFFNPEEAATVTSYLKLLLAPSSKKGKARLSPRSVGVISPYRKQVEKIRYCITKLDRELRGLDDIKDLKVGSVEEFQGQERSVILISTVRSSQSFVQLDLDFNLGFLKNPKRFNVAVTRAKALLIIVGNPLLLGHDPDWKVFLEFCKENGGYTGCPFPAKLDLQQGQNLLQGLSKLSPSTSGPHSHDYLPQEREGEGGLSLQVEPEWRNEL
B2: the binding entry in assay [5] and in assay [6] was “binds” in each case.

B3: NRBP2-Myc (wild-type NRBP2) expressed in HEK293T cells (protein, UniProt Q9NSY0 1-501)
chain: MAAPEPAPRRAREREREREDESEDESDILEESPCGRWQKRREQVNQGNMPGLQSTFLAMDTEEGVEVVWNELHFGDRKAFAAHEEKIQTVFEQLVLVDHPNIVKLHKYWLDTSEACARVIFITEYVSSGSLKQFLKKTKKNHKAMNARAWKRWCTQILSALSFLHACSPPIIHGNLTSDTIFIQHNGLIKIGSVWHRIFSNALPDDLRSPIRAEREELRNLHFFPPEYGEVADGTAVDIFSFGMCALEMAVLEIQTNGDTRVTEEAIARARHSLSDPNMREFILCCLARDPARRPSAHSLLFHRVLFEVHSLKLLAAHCFIQHQYLMPENVVEEKTKAMDLHAVLAELPRPRRPPLQWRYSEVSFMELDKFLEDVRNGIYPLMNFAATRPLGLPRVLAPPPEEVQKAKTPTPEPFDSETRKVIQMQCNLERSEDKARWHLTLLLVLEDRLHRQLTYDLLPTDSAQDLASELVHYGFLHEDDRMKLAAFLESTFLKYRGTQA
Take B3: the binding entry in assay [7] is “binds”.
